## Results of single-concentration screens

Source: ChEMBL document CHEMBL3988442, “University of Dundee, Small-Polar-MMV Screening Library” (2021).

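Assay of Toxoplasma gondii numbers, read through their beta-galactosidase reporter with a colour substrate. Tested at 50 µM. Higher reads as fewer parasites (inferred from which compounds were picked for retests). Of about 18,000 compounds tested this way, about 170 (0.94%) reached 50% or more in at least one test.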

Each number is a percent effect as filed. The record does not define 0% and 100%; most values in the screen are far below 50% and negative numbers occur (in some assays of this library far below -100). This is an unselected part of the compounds tested.

{"compound": "NCC(=O)Nc1ccccc1-n1cncn1", "percent effect": -10.4}
{"compound": "COC(=O)C(N)c1ccn(C)n1", "stereo": "centres unmarked", "percent effect": 4.042}
{"compound": "CN(C)Cc1ccccc1CNC(=O)C1CCC1", "percent effect": 7.773}
{"compound": "NC(=O)c1c[nH]nc1C1CCCNC1", "stereo": "centres unmarked", "percent effect": -8.872}
{"compound": "CN(C)C[C@@H]1[C@H]2CN(Cc3cccnc3)C[C@@H]12", "percent effect": -7.116}
{"compound": "O=C(CCNC(=O)c1ccco1)NC1CCS(=O)(=O)C1", "stereo": "centres unmarked", "percent effect": 16.29}
{"compound": "CC(O)CCc1ccc2c(c1)OCO2", "stereo": "centres unmarked", "percent effect": -5.366}
{"compound": "CCN(CCO)Cc1cc(-c2cccs2)on1", "percent effect": 8.587}
{"compound": "CC1CCCN(C(=O)CN2CCCCC2=O)C1", "stereo": "centres unmarked", "percent effect": -4.224}
{"compound": "CCC(=O)N1CCCN(C(=O)C2(N)CCCC2)CC1", "percent effect": -4.343}
{"compound": "CN(C)S(=O)(=O)c1ccc2c(c1)OCCCO2", "percent effect": 1.417}
{"compound": "CN(C)C(=O)CCNc1ccnc2ccc(Cl)cc12", "percent effect": 16.93}
{"compound": "NC(=O)CCc1ccc(S(=O)(=O)N2CCCCC2)cc1", "percent effect": 5.002}
{"compound": "NC(=O)c1ccc(S(=O)(=O)N2CCNCC2)o1", "percent effect": -7.161}
{"compound": "CNc1cccnc1CN", "percent effect": 8.602}
{"compound": "COC(=O)C1C[C@@H](O)CN1CCSCC(C)C", "stereo": "some centres unmarked", "percent effect": -19.98}
{"compound": "CCn1ncnc1CSCC(=O)Nc1nc(C)cs1", "percent effect": 4.097}
{"compound": "CC(C)CC(C(=O)Nc1cn[nH]c1)N1CCCCC1=O", "stereo": "centres unmarked", "percent effect": -12.8}
{"compound": "CC(C)(C)OC(=O)c1ncccc1N", "percent effect": -17.3}
{"compound": "CCO[C@H]1CN(CCc2cccc(C)n2)C[C@@H]1O", "percent effect": 3.373}
{"compound": "CCC1CCCCN1C(=O)CN1CCCC[C@@H]1CO", "stereo": "some centres unmarked", "percent effect": 7.092}
{"compound": "CC(O)c1cccc(OCCC2OCCO2)c1", "stereo": "centres unmarked", "percent effect": -8.153}
{"compound": "CCC(C)NC(=O)NCc1ccc(-n2ccnc2)nc1", "stereo": "centres unmarked", "percent effect": -18.01}
{"compound": "OCC(O)CNc1ccnc2ccc(Br)cc12", "stereo": "centres unmarked", "percent effect": 7.722}
{"compound": "O=C(Nc1ccncc1)c1coc(Br)c1", "percent effect": -14.98}
{"compound": "CS(=O)(=O)N[C@@H]1COCC[C@@H]1OCC1CCC1", "percent effect": -0.199}
{"compound": "CC(NC(=O)c1cccn1C(C)C)c1ncon1", "stereo": "centres unmarked", "percent effect": -2.926}
{"compound": "Cc1cccc(C(=O)Nc2cccc(O)c2)n1", "percent effect": 0.8696}
{"compound": "O=C(NCC1CCS(=O)(=O)C1)c1cnccn1", "stereo": "centres unmarked", "percent effect": -2.561}
{"compound": "CN(C)c1ccc(CN(C)[C@@H]2CCCC[C@@H]2O)cn1", "percent effect": -18.35}
{"compound": "CCC(=O)N[C@H]1CCCNC1", "percent effect": -3.043}
{"compound": "CC(=O)NCCCC(=O)N(C)Cc1nccs1", "percent effect": -4.635}
{"compound": "CCCn1nc(-c2nc(-c3cocn3)no2)ccc1=O", "percent effect": -6.193}
{"compound": "CS(=O)(=O)Cc1ccccc1CN", "percent effect": 7.355}
{"compound": "CN1CC(C(=O)NCCOC2CCCCC2)CC1=O", "stereo": "centres unmarked", "percent effect": 1.759}

Repeated from the top, 3 entries:

Compound	percent effect
NCC(=O)Nc1ccccc1-n1cncn1	-10.4%
COC(=O)C(N)c1ccn(C)n1 (centres unmarked)	4.042%
CN(C)Cc1ccccc1CNC(=O)C1CCC1	7.773%